PMC10232262
Results are given in words; binding and its absence hold for the method and conditions named. In cells and extracts the contact can be indirect.

Amino acid sequences for entries named in this document (tags omitted).
UniProt Q8NER1: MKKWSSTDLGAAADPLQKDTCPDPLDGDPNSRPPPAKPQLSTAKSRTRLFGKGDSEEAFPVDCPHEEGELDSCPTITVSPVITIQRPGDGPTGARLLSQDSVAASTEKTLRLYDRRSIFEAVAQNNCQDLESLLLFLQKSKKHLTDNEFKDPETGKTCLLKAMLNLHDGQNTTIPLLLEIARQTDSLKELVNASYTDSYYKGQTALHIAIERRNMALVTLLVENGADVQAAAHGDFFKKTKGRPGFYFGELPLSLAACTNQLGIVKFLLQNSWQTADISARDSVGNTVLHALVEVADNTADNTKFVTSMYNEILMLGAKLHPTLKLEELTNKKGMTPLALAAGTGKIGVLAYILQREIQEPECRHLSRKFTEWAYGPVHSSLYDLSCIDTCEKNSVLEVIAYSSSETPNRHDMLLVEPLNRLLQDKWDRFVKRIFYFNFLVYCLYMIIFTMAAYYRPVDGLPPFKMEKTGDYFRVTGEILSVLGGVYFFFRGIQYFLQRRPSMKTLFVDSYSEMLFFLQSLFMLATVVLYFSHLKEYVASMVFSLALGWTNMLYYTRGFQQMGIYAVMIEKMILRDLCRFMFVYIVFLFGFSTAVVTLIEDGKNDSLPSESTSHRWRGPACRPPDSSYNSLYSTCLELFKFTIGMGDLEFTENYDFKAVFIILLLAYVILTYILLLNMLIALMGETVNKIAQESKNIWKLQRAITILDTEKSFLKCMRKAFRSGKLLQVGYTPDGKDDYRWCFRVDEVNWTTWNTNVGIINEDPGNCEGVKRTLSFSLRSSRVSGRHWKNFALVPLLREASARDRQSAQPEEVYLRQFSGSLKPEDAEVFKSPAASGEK
UniProt Q7Z2W7: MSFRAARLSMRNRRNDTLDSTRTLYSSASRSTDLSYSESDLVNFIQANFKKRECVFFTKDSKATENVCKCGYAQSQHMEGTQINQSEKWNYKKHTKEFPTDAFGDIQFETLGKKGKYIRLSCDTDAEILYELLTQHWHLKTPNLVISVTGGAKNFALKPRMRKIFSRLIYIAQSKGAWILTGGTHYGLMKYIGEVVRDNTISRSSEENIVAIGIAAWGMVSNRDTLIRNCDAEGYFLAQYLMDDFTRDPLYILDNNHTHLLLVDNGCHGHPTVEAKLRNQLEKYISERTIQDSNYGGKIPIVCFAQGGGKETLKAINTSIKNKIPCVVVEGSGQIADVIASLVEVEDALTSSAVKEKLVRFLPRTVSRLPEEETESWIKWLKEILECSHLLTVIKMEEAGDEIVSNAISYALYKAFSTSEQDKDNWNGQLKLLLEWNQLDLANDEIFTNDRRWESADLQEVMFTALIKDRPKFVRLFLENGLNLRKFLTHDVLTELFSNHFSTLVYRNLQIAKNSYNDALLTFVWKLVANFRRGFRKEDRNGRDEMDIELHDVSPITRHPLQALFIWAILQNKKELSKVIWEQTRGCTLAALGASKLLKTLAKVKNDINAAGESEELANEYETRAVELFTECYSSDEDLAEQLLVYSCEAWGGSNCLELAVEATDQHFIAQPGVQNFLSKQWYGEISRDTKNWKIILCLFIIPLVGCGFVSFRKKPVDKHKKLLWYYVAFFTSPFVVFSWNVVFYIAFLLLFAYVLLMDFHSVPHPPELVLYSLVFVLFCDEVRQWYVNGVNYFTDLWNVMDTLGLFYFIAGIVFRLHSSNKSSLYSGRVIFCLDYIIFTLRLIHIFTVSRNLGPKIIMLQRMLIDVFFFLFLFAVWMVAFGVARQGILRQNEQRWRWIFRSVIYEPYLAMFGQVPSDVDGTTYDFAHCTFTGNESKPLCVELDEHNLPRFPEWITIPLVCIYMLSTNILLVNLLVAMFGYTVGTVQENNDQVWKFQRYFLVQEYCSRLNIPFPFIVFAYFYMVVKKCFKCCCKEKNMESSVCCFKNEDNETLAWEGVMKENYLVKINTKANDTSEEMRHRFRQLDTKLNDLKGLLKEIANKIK
UniProt P46940: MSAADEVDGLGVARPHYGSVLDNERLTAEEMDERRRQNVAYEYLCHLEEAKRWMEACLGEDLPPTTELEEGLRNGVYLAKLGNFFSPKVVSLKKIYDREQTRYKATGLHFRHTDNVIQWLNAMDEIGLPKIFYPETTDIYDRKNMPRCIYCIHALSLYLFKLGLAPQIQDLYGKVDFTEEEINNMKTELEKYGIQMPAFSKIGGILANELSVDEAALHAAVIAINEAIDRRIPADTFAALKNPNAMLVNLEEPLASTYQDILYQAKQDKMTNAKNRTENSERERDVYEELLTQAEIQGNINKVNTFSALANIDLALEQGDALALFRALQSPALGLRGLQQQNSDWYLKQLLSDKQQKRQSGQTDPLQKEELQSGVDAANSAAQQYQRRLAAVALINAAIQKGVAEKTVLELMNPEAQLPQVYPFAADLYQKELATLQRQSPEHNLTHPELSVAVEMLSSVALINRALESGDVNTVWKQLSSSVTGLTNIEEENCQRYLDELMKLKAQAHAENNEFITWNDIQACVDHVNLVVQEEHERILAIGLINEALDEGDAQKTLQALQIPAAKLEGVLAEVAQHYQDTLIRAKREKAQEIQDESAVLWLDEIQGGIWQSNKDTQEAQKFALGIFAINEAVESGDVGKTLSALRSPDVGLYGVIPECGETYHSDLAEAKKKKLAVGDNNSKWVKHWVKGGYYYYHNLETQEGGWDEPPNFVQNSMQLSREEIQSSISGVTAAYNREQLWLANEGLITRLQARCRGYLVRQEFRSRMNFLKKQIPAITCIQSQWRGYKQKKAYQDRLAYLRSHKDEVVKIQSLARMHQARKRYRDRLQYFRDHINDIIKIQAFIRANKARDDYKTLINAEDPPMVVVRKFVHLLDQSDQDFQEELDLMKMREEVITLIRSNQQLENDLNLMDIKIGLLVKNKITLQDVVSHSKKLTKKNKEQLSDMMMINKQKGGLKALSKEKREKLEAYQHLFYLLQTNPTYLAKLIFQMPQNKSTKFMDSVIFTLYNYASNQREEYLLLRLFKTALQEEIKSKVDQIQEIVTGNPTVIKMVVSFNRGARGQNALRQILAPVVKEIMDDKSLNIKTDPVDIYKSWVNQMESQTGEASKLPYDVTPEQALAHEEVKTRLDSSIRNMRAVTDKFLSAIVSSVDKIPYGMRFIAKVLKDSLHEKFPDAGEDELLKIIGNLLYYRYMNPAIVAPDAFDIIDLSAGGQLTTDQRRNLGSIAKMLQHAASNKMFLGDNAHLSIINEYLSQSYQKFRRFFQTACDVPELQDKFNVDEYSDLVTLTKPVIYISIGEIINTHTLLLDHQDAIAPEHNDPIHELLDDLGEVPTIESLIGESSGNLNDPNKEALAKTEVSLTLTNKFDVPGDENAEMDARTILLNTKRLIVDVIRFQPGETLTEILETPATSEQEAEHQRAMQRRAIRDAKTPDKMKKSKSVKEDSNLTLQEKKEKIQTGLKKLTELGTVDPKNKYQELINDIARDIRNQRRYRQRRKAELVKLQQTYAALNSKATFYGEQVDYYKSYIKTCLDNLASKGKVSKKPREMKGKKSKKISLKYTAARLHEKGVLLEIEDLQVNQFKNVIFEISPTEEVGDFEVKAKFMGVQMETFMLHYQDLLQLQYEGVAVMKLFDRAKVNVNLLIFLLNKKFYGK

Legend:
[1] = molecular target: TRPV1-V5-His (UniProt Q8NER1); assay: co-IP; HEK293 cells transfected with V5-His-tagged TRP channels and IQGAP1; blot stripped and reprobed with anti-V5
[2] = molecular target: TRPM8-V5-His (UniProt Q7Z2W7); assay: as above

Question: With “Myc-IQGAP1 (pCDNA3-Myc-IQGAP1) (from UniProt P46940 1-1657)” as the substance, how does the binding [1] read?
Answer: Its binding is “no binding”.

Question: And the binding [2]?
Answer: The binding was “no binding”.
